Data published in publication PMC10713455.
These are yes or no findings as the source states them, for the method shown. Some binding calls cover weakened binding; strength is not graded here.

By UniProt entry, the sequences of proteins in these tests, tags left out.
UniProt Q1D6H4: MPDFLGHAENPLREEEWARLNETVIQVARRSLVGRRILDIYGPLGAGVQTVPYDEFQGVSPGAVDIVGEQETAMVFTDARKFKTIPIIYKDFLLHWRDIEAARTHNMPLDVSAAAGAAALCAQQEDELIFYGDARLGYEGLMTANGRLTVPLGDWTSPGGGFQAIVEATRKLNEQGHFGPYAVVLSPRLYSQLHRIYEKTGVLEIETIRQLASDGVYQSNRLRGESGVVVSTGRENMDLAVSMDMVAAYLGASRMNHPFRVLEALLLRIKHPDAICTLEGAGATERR

Biological target: Mx^FLAG (wild-type encapsulin from Myxococcus xanthus with FLAG tag) (Myxococcus xanthus) (UniProt Q1D6H4)
Assay: native gel or EMSA; Clear Native (CN) PAGE of lysates of HEK293T cells expressing the variant; NativePAGE 3 to 12% gels, cathode buffer with 0.05% sodium deoxycholate, 150 V for 2 h at room temperature; Coomassie staining or UV illumination; self-assembly of the monomers into icosahedral shells

binding: binds
Substance: Mx^FLAG (wild-type encapsulin from Myxococcus xanthus with FLAG tag) (from UniProt Q1D6H4 1-287)
